Measured values from the supplement of paper PMC10849652.
This is one part of the list.

By UniProt entry, the sequences of proteins in these tests, tags left out. Where a name states a change or a piece, a line headed by the entry shows the natural chain unless it says otherwise.
UniProt Q9P289: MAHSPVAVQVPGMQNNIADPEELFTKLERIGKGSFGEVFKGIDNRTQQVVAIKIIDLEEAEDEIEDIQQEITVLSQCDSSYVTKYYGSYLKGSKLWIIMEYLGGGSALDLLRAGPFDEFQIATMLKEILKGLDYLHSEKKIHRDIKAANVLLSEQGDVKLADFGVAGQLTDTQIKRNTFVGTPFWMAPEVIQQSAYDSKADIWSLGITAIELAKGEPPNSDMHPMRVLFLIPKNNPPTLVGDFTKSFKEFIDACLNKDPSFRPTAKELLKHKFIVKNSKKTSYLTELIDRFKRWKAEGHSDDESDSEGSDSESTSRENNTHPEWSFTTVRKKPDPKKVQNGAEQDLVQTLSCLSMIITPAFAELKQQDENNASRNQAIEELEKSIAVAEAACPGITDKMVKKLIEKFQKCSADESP
UniProt O95630, whole entry, looked up: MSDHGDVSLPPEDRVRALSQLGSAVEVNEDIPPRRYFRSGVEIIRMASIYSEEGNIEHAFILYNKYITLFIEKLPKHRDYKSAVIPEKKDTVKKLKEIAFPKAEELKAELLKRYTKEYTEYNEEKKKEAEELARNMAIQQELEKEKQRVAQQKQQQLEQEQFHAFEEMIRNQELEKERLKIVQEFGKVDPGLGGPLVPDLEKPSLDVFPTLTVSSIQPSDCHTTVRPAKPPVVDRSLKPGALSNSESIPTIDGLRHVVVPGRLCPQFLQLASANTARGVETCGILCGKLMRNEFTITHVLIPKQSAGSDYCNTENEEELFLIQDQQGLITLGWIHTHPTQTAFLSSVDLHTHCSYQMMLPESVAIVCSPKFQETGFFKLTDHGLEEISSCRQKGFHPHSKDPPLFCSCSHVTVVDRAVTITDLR
UniProt Q5W111: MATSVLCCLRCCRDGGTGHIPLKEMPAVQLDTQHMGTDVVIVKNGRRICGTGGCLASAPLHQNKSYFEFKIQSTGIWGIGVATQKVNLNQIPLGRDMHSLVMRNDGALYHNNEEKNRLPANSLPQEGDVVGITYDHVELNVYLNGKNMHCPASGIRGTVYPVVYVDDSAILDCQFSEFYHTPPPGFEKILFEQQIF
UniProt Q8WXA9: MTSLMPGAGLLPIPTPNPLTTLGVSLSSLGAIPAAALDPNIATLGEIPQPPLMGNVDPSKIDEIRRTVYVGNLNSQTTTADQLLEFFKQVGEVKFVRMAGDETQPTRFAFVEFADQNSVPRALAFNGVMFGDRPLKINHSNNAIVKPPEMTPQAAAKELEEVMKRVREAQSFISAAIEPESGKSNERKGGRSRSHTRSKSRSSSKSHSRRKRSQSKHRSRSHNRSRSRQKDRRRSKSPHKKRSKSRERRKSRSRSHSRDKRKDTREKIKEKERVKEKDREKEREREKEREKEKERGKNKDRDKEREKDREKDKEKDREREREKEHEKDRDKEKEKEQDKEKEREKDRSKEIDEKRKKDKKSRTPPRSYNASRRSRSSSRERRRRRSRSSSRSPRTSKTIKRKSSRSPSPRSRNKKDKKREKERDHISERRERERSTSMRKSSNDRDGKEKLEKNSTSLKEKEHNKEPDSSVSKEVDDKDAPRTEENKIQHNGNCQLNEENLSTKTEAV
UniProt Q9BVQ7: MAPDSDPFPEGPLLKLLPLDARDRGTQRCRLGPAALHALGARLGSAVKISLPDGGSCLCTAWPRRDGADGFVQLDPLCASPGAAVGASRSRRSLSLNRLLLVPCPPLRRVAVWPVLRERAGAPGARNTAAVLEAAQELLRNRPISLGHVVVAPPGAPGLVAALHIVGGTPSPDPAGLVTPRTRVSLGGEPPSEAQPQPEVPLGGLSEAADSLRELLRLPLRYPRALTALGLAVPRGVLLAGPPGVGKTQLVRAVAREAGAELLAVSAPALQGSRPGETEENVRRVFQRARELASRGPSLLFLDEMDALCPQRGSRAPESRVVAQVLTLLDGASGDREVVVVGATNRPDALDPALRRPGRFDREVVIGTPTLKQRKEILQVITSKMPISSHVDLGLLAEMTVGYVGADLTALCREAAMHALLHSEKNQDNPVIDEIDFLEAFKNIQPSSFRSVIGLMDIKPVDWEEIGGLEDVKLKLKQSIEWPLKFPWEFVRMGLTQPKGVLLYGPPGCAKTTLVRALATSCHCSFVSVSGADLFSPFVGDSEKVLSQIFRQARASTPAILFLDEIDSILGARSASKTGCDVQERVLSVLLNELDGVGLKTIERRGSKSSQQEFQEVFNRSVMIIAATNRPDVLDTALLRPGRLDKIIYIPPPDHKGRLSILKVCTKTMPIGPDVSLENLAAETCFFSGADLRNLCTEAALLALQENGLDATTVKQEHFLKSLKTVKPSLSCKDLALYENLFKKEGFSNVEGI
UniProt O15020, whole entry, looked up: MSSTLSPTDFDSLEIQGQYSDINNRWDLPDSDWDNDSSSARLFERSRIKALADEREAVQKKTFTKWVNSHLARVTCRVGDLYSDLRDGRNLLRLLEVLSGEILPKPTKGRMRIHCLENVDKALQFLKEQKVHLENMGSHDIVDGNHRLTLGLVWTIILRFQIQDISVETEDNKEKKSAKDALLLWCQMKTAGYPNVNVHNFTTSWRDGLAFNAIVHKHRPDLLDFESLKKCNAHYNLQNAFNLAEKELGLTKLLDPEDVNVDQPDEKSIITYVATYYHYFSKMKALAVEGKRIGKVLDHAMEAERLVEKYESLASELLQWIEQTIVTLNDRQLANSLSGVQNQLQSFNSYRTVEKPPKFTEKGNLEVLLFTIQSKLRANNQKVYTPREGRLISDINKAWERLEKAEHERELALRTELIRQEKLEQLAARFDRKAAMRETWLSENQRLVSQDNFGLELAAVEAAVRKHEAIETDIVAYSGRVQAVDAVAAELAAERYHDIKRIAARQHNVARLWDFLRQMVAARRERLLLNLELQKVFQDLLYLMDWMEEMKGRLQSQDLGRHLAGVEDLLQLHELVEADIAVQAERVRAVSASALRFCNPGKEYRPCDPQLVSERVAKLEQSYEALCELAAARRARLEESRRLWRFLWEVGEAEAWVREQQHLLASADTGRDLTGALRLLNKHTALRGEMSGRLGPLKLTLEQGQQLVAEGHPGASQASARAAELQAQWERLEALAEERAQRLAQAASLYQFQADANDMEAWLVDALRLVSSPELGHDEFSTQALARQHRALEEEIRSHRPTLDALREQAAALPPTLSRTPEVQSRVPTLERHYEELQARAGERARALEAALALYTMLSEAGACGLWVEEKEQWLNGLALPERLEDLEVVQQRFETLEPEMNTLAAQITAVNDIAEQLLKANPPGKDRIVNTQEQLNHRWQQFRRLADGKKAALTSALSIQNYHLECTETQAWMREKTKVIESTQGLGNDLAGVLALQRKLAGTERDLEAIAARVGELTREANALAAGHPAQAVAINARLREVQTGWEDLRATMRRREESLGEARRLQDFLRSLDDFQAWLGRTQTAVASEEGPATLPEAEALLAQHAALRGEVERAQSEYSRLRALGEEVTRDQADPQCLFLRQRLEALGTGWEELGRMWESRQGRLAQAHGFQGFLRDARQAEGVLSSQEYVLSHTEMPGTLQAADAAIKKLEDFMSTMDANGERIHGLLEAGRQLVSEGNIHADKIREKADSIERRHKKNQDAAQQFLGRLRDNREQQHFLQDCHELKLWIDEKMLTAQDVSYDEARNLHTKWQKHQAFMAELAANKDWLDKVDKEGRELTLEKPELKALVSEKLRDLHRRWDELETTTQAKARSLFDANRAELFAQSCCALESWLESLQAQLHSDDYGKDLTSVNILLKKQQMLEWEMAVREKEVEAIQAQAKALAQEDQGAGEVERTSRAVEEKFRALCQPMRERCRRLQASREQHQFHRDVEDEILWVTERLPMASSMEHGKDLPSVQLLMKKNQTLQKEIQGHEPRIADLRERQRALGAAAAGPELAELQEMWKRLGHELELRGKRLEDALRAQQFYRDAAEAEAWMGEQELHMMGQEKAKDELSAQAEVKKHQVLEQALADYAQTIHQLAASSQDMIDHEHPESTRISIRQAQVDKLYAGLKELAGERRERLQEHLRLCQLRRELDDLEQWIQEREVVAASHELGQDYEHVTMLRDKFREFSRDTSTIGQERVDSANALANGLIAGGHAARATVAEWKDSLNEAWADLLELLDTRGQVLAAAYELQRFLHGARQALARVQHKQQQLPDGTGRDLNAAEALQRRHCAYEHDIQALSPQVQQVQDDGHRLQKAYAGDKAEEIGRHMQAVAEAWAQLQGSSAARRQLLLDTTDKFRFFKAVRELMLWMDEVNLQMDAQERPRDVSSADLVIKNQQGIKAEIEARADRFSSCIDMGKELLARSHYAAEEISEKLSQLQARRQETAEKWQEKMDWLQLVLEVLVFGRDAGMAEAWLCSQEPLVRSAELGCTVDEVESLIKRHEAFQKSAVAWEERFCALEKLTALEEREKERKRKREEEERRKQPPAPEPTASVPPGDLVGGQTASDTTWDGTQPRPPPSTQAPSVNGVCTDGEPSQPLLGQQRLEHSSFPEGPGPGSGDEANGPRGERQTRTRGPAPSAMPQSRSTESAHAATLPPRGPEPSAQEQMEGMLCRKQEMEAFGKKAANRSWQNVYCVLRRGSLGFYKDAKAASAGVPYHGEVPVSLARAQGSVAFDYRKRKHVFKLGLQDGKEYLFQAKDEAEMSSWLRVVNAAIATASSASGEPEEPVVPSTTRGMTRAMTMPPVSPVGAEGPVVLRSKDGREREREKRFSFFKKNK
UniProt P37108: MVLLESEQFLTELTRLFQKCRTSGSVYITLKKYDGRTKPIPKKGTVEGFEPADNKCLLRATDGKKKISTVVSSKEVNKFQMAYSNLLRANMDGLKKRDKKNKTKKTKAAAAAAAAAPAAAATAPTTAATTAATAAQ
UniProt Q9NYA1, whole entry, looked up: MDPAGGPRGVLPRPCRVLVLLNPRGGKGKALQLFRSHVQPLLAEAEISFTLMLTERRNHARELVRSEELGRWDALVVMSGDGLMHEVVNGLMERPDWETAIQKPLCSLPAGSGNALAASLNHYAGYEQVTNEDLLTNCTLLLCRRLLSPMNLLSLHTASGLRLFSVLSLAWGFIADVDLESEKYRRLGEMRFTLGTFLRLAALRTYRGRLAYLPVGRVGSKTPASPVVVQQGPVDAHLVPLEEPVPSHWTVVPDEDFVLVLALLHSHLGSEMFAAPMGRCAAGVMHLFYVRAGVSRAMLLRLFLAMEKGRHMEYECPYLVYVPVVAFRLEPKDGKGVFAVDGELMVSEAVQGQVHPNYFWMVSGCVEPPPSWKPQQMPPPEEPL
UniProt P42229: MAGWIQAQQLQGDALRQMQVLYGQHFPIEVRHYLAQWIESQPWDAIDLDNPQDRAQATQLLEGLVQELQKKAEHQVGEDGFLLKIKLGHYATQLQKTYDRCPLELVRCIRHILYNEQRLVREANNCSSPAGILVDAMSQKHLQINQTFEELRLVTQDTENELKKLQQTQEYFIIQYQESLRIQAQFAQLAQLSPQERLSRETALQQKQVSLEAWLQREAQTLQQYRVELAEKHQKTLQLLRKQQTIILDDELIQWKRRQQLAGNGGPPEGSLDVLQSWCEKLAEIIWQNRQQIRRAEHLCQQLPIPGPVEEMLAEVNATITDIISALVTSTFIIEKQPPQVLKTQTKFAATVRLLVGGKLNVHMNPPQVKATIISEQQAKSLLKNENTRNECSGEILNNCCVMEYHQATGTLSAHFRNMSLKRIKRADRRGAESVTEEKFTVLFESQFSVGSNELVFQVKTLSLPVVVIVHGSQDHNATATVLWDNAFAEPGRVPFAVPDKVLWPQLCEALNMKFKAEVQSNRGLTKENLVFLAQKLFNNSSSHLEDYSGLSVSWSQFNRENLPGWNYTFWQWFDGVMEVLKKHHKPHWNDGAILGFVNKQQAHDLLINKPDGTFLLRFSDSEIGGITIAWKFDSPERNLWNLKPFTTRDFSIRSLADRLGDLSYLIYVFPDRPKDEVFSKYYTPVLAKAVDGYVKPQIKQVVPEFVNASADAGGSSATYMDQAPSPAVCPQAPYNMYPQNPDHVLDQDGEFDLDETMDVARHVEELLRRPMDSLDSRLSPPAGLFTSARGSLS
UniProt O94768: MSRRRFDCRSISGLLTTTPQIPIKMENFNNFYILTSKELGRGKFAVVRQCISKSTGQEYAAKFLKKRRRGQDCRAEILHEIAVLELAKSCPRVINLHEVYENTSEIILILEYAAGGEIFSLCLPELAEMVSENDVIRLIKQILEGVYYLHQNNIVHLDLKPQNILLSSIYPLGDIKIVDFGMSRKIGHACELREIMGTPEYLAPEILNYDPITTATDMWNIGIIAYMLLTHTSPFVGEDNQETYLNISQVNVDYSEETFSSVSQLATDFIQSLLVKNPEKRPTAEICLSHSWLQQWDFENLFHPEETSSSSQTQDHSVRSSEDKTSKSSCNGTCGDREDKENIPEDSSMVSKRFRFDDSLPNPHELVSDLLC
UniProt Q16385, whole entry, looked up: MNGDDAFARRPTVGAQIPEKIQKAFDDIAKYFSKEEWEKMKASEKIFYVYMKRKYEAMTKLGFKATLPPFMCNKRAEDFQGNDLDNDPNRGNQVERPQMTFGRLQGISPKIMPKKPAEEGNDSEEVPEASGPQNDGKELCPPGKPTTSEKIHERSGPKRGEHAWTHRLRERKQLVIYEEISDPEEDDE

Experiments:
Assay in all cases: log2 fold change, soluble protein after heating vs DMSO (PISA); higher = thermal stabilisation; K562 cells, 10 uM, 30 min; active = over 0.2 and 3.5 SD of the protein, either way, in both replicates (recomputed)
[1] = compound: Cc1ccc(NC(=O)c2ccc(CN3CC[C@H](N(C)C)C3)c(C(F)(F)F)c2)cc1Nc1nccc(-c2cncnc2)n1 [bafetinib]
Summary of the method: (§1)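 K562 cells (2×10^6 cells/mL) were treated with 10 μM compound for 30 min, and aliquots were heated for 3 min over 48°C-58°C. Pooled aliquots were extracted in PBS with 0.5% NP-40 at 4°C, and the supernatant after 21,000xg for 90 min was measured by TMTpro 16plex LC-MS/MS with channel sums equalised. Reported thermal stability, relative to control samples and from duplicates, is a log2 fold change.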

[2] = compound: Cc1cccc(CC(=O)N2CCc3c2ccc(-c2cn(C)c4ncnc(N)c24)c3F)n1
Summary of the method: as §1

[3] = compound: Cc1cn(-c2cc(NC(=O)c3ccc(C)c(Nc4nccc(-c5cccnc5)n4)c3)cc(C(F)(F)F)c2)cn1 [nilotinib]
Summary of the method: as §1

[4] = compound: Cc1nc(Nc2n[nH]c3c2CN(C(=O)N[C@H](CN(C)C)c2ccccc2)C3(C)C)c2sccc2n1
Summary of the method: as §1

[5] = compound: Cc1nc(Nc2ncc(C(=O)Nc3c(C)cccc3Cl)s2)cc(N2CCN(CCO)CC2)n1 [dasatinib]
Summary of the method: as §1

[6] = compound: Cc1ncc(-c2ccnc(Nc3ccc(S(C)(=O)=O)cc3)n2)n1C(C)C
Summary of the method: as §1

[7] = compound: Cn1cc(-c2ccc3c(c2)CCN3C(=O)Cc2cccc(C(F)(F)F)c2)c2c(N)ncnc21
Summary of the method: as §1

[8] = compound: Cn1cc(-c2ccc3nnc(C(F)(F)c4ccc5ncccc5c4)n3n2)cn1
Summary of the method: as §1

[9] = compound: Cn1cncc1[C@@](N)(c1ccc(Cl)cc1)c1ccc2c(c1)c(-c1cccc(Cl)c1)cc(=O)n2C [tipifarnib]
Summary of the method: as §1

[10] = compound: FC(F)(F)c1ccc(/C=C/c2nc(COc3ccc(CCCCn4ccnn4)cc3)co2)cc1 [mubritinib]
Summary of the method: as §1

Measured: log2 fold change

STK26 (UniProt Q9P289)
inactive: [1] -0.057 | [2] 0.026 | [3] -0.089 | [4] 0.198 | [6] -0.057 | [7] -0.058 | [8] 0.015 | [9] -0.036 | [10] -0.036
active: [5] -0.319

STAMBP (UniProt O95630)
inactive: [1] -0.076 | [2] 0.076 | [3] -0.033 | [4] -0.129 | [5] -0.125 | [6] 0.094 | [7] -0.032 | [8] 0.012 | [9] -0.039 | [10] 0.011

SPTAN1 isoform 2 (UniProt Q13813)
inactive: [1] 0.066 | [2] -0.042 | [3] 0.053 | [4] -0.091 | [5] 0.038 | [6] 0 | [7] 0.118 | [8] 0.028 | [9] 0.014 | [10] -0.016

SPRYD7 (UniProt Q5W111)
inactive: [1] 0.017 | [2] 0.064 | [3] 0.016 | [4] -0.014 | [5] -0.024 | [6] -0.017 | [7] 0.046 | [8] 0.109 | [9] 0.004 | [10] 0.098

SREK1 isoform 2 (UniProt Q8WXA9)
active: [4] -0.593
inactive: [1] 0.07 | [2] 0.015 | [3] 0.156 | [5] -0.095 | [6] 0.005 | [7] -0.006 | [8] -0.11 | [9] 0.031 | [10] 0.063

SPATA5L1 (UniProt Q9BVQ7)
inactive: [1] -0.044 | [2] -0.023 | [3] -0.004 | [4] -0.175 | [5] -0.001 | [6] 0.035 | [7] 0.032 | [8] -0.009 | [9] 0.048 | [10] -0.01

SPTBN2 (UniProt O15020)
inactive: [1] 0.042 | [2] 0.086 | [3] 0.063 | [4] -0.056 | [5] -0.092 | [6] 0.08 | [7] 0.132 | [8] -0.064 | [9] 0.033 | [10] -0.043

SSBP1 (UniProt Q04837)
inactive: [1] 0.01 | [2] -0.058 | [3] -0.008 | [4] 0.029 | [5] 0.049 | [6] -0.009 | [7] -0.038 | [8] -0.042 | [9] 0.1 | [10] -0.014

SRP14 (UniProt P37108)
inactive: [1] 0.207 | [2] 0.003 | [3] -0.003 | [4] 0.121 | [5] 0.18 | [6] -0.023 | [7] -0.295 | [8] -0.161 | [9] 0.171 | [10] -0.178

SRI (UniProt P30626)
inactive: [1] -0.001 | [2] 0.062 | [3] 0.017 | [4] 0.001 | [5] 0.04 | [6] -0.036 | [7] 0.113 | [8] 0.328 | [9] -0.072 | [10] 0.01

SPCS1, A0A5F9YFS9
inactive: [1] -0.091 | [2] -0.038 | [3] -0.025 | [4] 0.051 | [5] -0.09 | [6] 0.003 | [7] 0.19 | [8] 0.023 | [9] -0.259 | [10] -0.004

SPHK1 isoform 2 (UniProt Q9NYA1)
inactive: [1] 0.055 | [2] -0.027 | [3] -0.02 | [4] 0.09 | [5] -0.033 | [6] 0.07 | [7] 0.054 | [8] -0.031 | [9] -0.051 | [10] 0.073

STAT5A (UniProt P42229)
active: [4] -0.338 | [10] 0.371
inactive: [1] 0.034 | [2] 0.208 | [3] -0.112 | [5] -0.191 | [6] -0.051 | [7] 0 | [8] 0.104 | [9] -0.107

SPCS3 (UniProt P61009)
inactive: [1] -0.103 | [2] -0.001 | [3] 0.027 | [4] -0.021 | [5] 0.037 | [6] -0.044 | [7] 0.017 | [8] 0.002 | [9] 0.066 | [10] 0.022

Two entries drawn at random from the list so far, as already listed:
STAT5A (UniProt P42229)
active: [4] -0.338 | [10] 0.371
inactive: [1] 0.034 | [2] 0.208 | [3] -0.112 | [5] -0.191 | [6] -0.051 | [7] 0 | [8] 0.104 | [9] -0.107

SPCS3 (UniProt P61009)
inactive: [1] -0.103 | [2] -0.001 | [3] 0.027 | [4] -0.021 | [5] 0.037 | [6] -0.044 | [7] 0.017 | [8] 0.002 | [9] 0.066 | [10] 0.022

The results go on.

STK17B (UniProt O94768)
inactive: [1] 0.024

SSX2 (UniProt Q16385)
inactive: [1] -0.098 | [2] -0.011 | [3] 0.003 | [4] -0.061 | [5] 0.014 | [6] -0.042 | [7] -0.039 | [8] 0.012 | [9] -0.015 | [10] -0.048
